{"source": "patent EP0009325A1", "about": "“Erythritol cointaining anti-caries compositions” (PFIZER INC., priority 1978, dated 1980)", "origin": "cited, not measured here", "settings": "at practical use levels; cited from earlier work"}
{"smiles": "OC[C@@H](O)[C@@H](O)[C@H](O)[C@H](O)CO", "note": "[mannitol]", "values": [{"measurement": "sweetness relative to sucrose", "result": 50, "unit": "%"}]}
{"smiles": "OC[C@@H](O)[C@@H](O)[C@H](O)[C@@H](O)CO", "note": "[sorbitol]", "values": [{"measurement": "sweetness relative to sucrose", "result": 50, "unit": "%"}]}
